Measurements taken from paper doi:10.1101/2024.06.14.598999 (bioRxiv, 2024).
These are yes or no findings as the source states them, for the method shown. For some assays here: Binding seen in cells or lysates may run through a third protein. Some binding calls cover weakened binding; strength is not graded here. Sequences can lack the tags named with a protein.

T1: human His6-AP5β5 trunk domain (residues 1-632) (human) (UniProt Q2VPB7)
T1 sequence: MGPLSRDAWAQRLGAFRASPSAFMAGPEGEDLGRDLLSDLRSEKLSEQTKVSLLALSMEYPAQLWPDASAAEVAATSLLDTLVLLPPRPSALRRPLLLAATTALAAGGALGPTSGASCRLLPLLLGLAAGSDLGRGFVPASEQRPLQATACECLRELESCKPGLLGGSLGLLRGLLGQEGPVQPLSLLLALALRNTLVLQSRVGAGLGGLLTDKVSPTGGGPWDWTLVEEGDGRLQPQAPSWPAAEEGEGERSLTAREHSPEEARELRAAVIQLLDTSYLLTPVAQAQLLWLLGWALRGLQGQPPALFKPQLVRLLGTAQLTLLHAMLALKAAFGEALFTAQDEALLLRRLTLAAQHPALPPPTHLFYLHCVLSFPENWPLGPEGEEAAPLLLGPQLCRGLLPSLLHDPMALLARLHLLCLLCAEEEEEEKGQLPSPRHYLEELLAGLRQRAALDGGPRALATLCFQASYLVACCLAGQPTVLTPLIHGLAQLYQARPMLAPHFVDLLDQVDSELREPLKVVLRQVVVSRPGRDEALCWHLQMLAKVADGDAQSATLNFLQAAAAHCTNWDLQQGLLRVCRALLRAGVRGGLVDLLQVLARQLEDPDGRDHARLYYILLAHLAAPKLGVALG

T2: human His6-AP5β5, full length (residues 1-878) (human) (UniProt Q2VPB7)
T2 sequence: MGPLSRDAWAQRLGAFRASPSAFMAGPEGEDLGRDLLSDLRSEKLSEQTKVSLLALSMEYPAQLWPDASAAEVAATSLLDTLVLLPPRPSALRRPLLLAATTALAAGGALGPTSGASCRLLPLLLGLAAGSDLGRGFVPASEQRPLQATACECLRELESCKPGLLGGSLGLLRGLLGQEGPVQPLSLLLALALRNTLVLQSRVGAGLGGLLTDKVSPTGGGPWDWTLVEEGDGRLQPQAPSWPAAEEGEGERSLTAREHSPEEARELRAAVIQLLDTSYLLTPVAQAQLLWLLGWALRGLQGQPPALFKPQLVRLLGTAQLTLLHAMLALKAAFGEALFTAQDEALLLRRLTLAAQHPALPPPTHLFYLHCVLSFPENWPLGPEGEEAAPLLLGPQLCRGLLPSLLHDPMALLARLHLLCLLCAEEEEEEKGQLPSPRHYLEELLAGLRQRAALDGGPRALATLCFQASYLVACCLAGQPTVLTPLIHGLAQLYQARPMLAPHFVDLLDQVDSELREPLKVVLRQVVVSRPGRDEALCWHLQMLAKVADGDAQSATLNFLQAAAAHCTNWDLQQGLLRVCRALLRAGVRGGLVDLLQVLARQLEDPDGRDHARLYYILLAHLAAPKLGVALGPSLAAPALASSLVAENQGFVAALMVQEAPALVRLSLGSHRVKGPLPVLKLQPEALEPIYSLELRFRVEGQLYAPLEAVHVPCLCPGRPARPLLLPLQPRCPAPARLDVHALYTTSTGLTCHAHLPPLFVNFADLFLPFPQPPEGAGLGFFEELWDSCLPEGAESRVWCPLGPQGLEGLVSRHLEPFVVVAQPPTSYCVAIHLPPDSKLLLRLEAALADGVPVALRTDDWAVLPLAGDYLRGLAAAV

T3: human AP5β5 (1-632) with N-terminal GST tag and C-terminal Twin-Strep tag (subcomplex purification) (human) (UniProt Q2VPB7)
T3 sequence: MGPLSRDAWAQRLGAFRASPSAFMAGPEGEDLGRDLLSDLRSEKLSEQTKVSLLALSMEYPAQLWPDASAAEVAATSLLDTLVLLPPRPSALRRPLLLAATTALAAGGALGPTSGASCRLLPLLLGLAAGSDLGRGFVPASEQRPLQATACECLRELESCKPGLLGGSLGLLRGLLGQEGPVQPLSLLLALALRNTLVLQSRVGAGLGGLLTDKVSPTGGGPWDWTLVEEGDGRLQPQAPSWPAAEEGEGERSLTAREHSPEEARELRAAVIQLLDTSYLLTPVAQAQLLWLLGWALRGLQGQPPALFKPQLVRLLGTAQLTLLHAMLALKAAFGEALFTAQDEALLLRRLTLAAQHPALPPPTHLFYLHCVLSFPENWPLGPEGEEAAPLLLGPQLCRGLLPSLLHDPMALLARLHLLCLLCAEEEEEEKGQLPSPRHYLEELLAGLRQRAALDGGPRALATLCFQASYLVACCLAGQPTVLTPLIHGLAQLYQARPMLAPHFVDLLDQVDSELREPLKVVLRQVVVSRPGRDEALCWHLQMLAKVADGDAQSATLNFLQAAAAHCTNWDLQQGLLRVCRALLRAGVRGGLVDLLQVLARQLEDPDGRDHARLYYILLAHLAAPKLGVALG

T4: MBP-TSF-SPG11^(WD40, Δ301-394) (human) (UniProt Q96JI7)
T4 sequence: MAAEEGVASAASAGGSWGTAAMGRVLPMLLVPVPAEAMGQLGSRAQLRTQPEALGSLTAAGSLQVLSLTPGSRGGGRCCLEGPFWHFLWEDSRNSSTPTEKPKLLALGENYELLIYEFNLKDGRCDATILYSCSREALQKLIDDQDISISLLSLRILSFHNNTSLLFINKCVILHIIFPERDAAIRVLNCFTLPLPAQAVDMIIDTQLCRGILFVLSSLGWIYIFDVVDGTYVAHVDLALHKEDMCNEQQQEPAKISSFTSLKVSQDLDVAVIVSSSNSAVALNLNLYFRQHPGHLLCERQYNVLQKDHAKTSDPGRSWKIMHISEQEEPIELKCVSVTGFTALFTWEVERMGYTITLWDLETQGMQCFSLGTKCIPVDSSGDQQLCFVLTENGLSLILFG

T5: MBP-TSF-SPG11^(WD40-hairpin, Δ301-394) (human) (UniProt Q96JI7)
T5 sequence: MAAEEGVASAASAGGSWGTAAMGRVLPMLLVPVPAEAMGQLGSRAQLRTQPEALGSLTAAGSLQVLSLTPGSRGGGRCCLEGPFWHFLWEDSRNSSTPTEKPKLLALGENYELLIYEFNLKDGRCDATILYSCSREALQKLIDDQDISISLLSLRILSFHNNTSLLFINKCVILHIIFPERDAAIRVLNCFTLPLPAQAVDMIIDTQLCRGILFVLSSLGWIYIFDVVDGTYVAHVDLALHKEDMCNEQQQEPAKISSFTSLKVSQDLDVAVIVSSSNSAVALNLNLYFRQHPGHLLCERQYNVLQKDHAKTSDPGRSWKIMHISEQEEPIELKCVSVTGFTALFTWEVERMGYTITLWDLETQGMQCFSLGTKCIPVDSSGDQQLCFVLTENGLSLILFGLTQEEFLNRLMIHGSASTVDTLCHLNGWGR

T6: MBP-TSF-SPG11^WD40 (residues 1-495) (human) (UniProt Q96JI7)
T6 sequence: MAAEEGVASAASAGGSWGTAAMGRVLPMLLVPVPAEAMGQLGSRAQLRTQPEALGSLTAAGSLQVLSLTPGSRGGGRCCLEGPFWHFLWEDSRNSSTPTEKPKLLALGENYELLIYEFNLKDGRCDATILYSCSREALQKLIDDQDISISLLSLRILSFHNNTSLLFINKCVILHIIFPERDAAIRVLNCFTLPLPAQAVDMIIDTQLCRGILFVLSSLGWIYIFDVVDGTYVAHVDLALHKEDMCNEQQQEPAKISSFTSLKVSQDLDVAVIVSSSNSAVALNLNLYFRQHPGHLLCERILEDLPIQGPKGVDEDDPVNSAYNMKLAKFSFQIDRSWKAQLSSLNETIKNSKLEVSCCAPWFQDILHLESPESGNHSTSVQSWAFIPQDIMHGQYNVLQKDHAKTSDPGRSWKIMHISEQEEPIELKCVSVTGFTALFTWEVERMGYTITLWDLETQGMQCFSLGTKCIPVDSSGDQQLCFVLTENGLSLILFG

T7: MBP-TSF-SPG11^WD40-hairpin (residues 1-525) (human) (UniProt Q96JI7)
T7 sequence: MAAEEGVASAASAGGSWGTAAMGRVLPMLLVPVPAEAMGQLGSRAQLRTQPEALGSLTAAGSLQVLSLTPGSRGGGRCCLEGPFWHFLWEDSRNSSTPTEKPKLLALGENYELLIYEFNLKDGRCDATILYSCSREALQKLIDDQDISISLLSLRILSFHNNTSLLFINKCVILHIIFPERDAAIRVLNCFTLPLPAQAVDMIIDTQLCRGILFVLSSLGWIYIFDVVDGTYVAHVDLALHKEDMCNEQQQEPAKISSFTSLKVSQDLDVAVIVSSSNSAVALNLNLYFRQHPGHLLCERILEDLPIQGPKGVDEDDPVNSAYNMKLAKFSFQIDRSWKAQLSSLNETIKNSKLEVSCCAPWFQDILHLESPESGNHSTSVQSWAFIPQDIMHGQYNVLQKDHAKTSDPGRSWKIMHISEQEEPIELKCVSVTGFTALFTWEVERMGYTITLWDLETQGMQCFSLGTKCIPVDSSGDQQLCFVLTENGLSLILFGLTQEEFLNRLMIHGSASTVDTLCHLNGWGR


How the values were obtained:
[1] = biological target: T1, human His6-AP5β5 trunk domain (residues 1-632) (human); experiment: cryo-EM structure
[2] = biological target: T2, human His6-AP5β5, full length (residues 1-878) (human); experiment: cryo-EM structure
[3] = biological target: T3, human AP5β5 (1-632) with N-terminal GST tag and C-terminal Twin-Strep tag (subcomplex purification) (human); experiment: SEC
[4] = biological target: T4, MBP-TSF-SPG11^(WD40, Δ301-394) (human); experiment: pull-down
[5] = biological target: T5, MBP-TSF-SPG11^(WD40-hairpin, Δ301-394) (human); experiment: pull-down
[6] = biological target: T6, MBP-TSF-SPG11^WD40 (residues 1-495) (human); experiment: pull-down
[7] = biological target: T7, MBP-TSF-SPG11^WD40-hairpin (residues 1-525) (human); experiment: pull-down
[8] = biological target: human SPG11 (spatacsin), full length, N-terminal Twin-Strep-Flag tag (human) (UniProt Q96JI7); experiment: pull-down

binding [1]	binding [2]	binding [3]	binding [4]	binding [5]	binding [6]	binding [7]	binding [8]	Binder
binds	binds	binds	–	–	–	–	–	mouse AP5μ5 (residues 1-490) (protein, UniProt Q8BJ63 1-490) MALRAVWLIRHEPGTPLGGTVRFSRRYPTVEKRAKAFNGMTYVPVPEDGPFLRALLFQLRLLDDDKDFMERRDGCSRINKTSIYGLSVGGEELWPVIAFLRDSMIYASVPLVEQALSPRPPLISISGVSQGLELLLGIQDFLYSSQKNDTDLHTKLSQLPDLLLQACPLGTLLDANLQNSLNSINSVSVTQPQKQPAWKVGAYKGKAQISISITETVKCMQYGKQDIADTWQVAGTVACKCDLEGVMPAVTISLSLPTNGSPLQDIIVHPCVTSLDSAILTSSSIDTMDDSAFSGPYKFPFTPPLESFNLCHYTSQVPVPPILGSYHMKEEGVQLKVTVNFKLHESVRNNFEVCEAHIPFYNRGPITHLEYKASFGQLEVFREKSLLVWIIGQKFPKSMEISLSGTLTFGVKGHNKQPFDHICIGNTAYIKLNFRIADYTLTGCYADQHSVQVFASGKPKISAYRKLISSDYYIWNSKAPAPVTYASLLP
–	–	–	no binding	no binding	binds	binds	binds	AP5ζ-GST/σ5 subcomplex in Expi293F lysate (mouse AP5ζ-GST with human AP5σ5) (complex, UniProt Q3U829 1-807; Q9NUS5 1-200) chain 1: MFSAGAESLLHQAREIQDEELRRFCSRVTKLLQEAPGPATVDALQRLFLIVSATKYPRRLEKMCVDLLQTTLCLPASPEQLQVLCAAILREMSPFNDLALSCDHTPNTRQLSLVASVLLAQGDRKGEIRCVSQRIFKILENRQPEGPSVRPLLPILSKVIGLAPGILMEDQTNLLSKRLVDWLRYASIQQGLPYSGGFFSTPRTRQPGPITEVDGAVASDFFTVLSTGQHFTEDQWVNMQAFSMLRKWLLHSGPEDPCSPDADDKSELEGSTLSVLSAASTASRLLPPRERLREVAFEYCQRLLEQSNRRALRKGDSDLQKACLVEAVSVLDVLCRQDPSFLYRTLSCLKALHRRLGEDPGSERALVPLAQFFLNHGEAAAMDAEAVYGQLLRGLPSERFHSPTLAFEVIHFCTHNLALFDSHFLSLLRLSFPSLFKFLAWNSPPLTAEFVVLLPALVDAGTAVEMLHALLDLPCLTAALDLQLRSTQTPSERLLWDISLRVPSCLEAFQDPQFQGLFRHLLRTKASGSTERLTPLHQVLKPMASCARVTQCAEAVPVLLQAFFSAVTQTADGALINQLALLLLERSDSLYPVPQYEARVHGVLSSQLLVLCKLKPSLVVELSRELLEFVGSVSSIHSRASVFTCVVWAIGEYLSVTWDKRCTAEQINKFFEALEALLFEVTQSRPLADLPCCPPEVVTALMTTLTKLASRSQDLIPRVSLFLSKMRTLAQNPATSSVHSEEGAESIRTRASELLTLLKMPSVAQFVFTPPAGVCQPRYHRDTNVALPLALRTVSRLVEKEAGLLPG chain 2: MVHAFLIHTLRAPNTEDTGLCRVLYSCVFGAEKSPDDPRPHGAERDRLLRKEQILAVARQVESMCRLQQQASGRPPMDLQPQSSDEQVPLHEAPRGAFRLAAENPFQEPRTVVWLGVLSLGFALVLDAHENLLLAEGTLRLLTRLLLDHLRLLAPSTSLLLRADRIEGILTRFLPHGQLLFLNDQFVQGLEKEFSAAWPR
